Data source: PubChem BioAssay AID652243 (Drosophila RNAi Screening Center, 2013)
Screen: 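Fly regulators of androgen-dependent reporter output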 (primary screen). System: Drosophila S2R+ cells. Reagent: long dsRNA against Drosophila genes. Time to read-out: 72 h (48 h, then 24 h hormone). Treatment: synthetic androgen R1881 at 10 nM for 24 h. Detection: 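Per-well raw luminescence of the androgen-driven firefly reporter and of the Renilla control, two replicates each, without normalisation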. Direction: firefly reporter light: higher = more light from androgen-responsive reporter; Renilla control light: higher = more constitutive control signal (cell number, transfection). Active means: 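Hit when the log firefly-to-Renilla ratio dropped or increased by a fixed fold versus the mean of GFP or LacZ controls across duplicate plates; lowering cut given as 1.5 and as 3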. Calls: active = hit: reporter lowered or raised; inactive = no hit.
The screen tested about 24,000 reagents; shown is an unselected part of those with a known target gene and a result. In the full data, 246 (1%) got an active call. 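Plates not normalised; calls are printed but the firefly/Renilla ratio behind them is not deposited; fold cut for lowering reported inconsistently.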 Raw values are not corrected between plates. The numbers tell different reagents against one gene apart. Names joined by + are all predicted targets of the reagent. The record does not give: the amount of reagent.

| Target gene | dsRNA no. | firefly reporter light, replicate 1 | firefly reporter light, replicate 2 | Renilla control light, replicate 1 | Renilla control light, replicate 2 | Outcome |
| --- | --- | --- | --- | --- | --- | --- |
| yki | 1 | 6.49e5 | 1.65e5 | 1.65e6 | 7.03e5 | inactive |
| yki | 2 | 3.79e5 | 3.53e5 | 1.03e6 | 1.12e6 | inactive |
| Gug | 1 | 2.24e5 | 2.35e5 | 3.05e6 | 2.63e6 | inactive |
| Zip71B | 1 | 1.68e5 | 1.65e5 | 1.83e6 | 1.49e6 | inactive |
| Zip71B | 2 | 6.89e5 | 8.37e5 | 1.06e6 | 1.06e6 | inactive |
| SdhA | 1 | 8.86e5 | 1.26e6 | 1.24e6 | 1.41e6 | inactive |
| Efa6 | 1 | 95592 | 64454 | 1.66e5 | 1.96e5 | inactive |
| Efa6 | 2 | 78413 | 65084 | 1.73e6 | 1.42e6 | active |
| Efa6 | 3 | 6.60e5 | 4.69e5 | 1.14e6 | 1.19e6 | inactive |
| Ktl | 1 | 84671 | 97784 | 5.49e5 | 8.39e5 | inactive |
| Pkcdelta | 1 | 3.64e5 | 3.45e5 | 3.76e6 | 2.88e6 | inactive |
| Pkcdelta | 2 | 4.16e5 | 3.88e5 | 3.57e6 | 3.19e6 | inactive |
| Pkcdelta | 3 | 4.56e5 | 4.68e5 | 7.12e5 | 5.70e5 | inactive |
| Pkcdelta | 4 | – | – | – | – | inactive |
| Pkcdelta | 5 | – | – | – | – | inactive |
| pxb | 1 | 1.64e5 | 1.36e5 | 1.74e5 | 2.17e5 | inactive |
| pxb | 2 | 10640 | 15381 | 57290 | 95522 | inactive |
| pxb | 3 | 2.37e5 | 1.88e5 | 2.44e6 | 1.98e6 | inactive |
| pxb | 4 | 9.56e5 | 9.07e5 | 2.05e6 | 2.01e6 | inactive |
| pxb | 5 | 4.92e5 | 4.78e5 | 5.11e5 | 5.88e5 | inactive |
| Obp56g | 1 | 86770 | 1.11e5 | 1.22e6 | 1.27e6 | inactive |
| Adgf-D | 1 | 1.21e5 | 1.22e5 | 1.84e6 | 1.64e6 | inactive |
| Mcm6 | 1 | 1.15e5 | 49275 | 4.78e5 | 2.67e5 | inactive |
| Mcm6 | 2 | 5.12e5 | 4.25e5 | 5.12e5 | 3.82e5 | inactive |

Hits (from the list above):
| Target gene | dsRNA no. | firefly reporter light, replicate 1 | firefly reporter light, replicate 2 | Renilla control light, replicate 1 | Renilla control light, replicate 2 | Outcome |
| --- | --- | --- | --- | --- | --- | --- |
| Efa6 | 2 | 78413 | 65084 | 1.73e6 | 1.42e6 | active |

The listing continues:
| Target gene | dsRNA no. | firefly reporter light, replicate 1 | firefly reporter light, replicate 2 | Renilla control light, replicate 1 | Renilla control light, replicate 2 | Outcome |
| --- | --- | --- | --- | --- | --- | --- |
| JTBR | 1 | 1.02e5 | 66366 | 7.06e5 | 8.10e5 | inactive |
| CG7029 | 1 | 55359 | 57127 | 3.62e5 | 4.92e5 | inactive |
| CG7029 | 2 | 9.53e5 | 9.83e5 | 8.48e5 | 9.17e5 | inactive |
| CG30486 | 1 | 3.50e5 | 2.68e5 | 1.19e6 | 1.78e6 | inactive |
| Tsp42Eg | 1 | 1.01e6 | 8.21e5 | 2.07e6 | 2.60e6 | inactive |
| CG43689 | 1 | 2.46e5 | 2.75e5 | 2.40e6 | 2.20e6 | inactive |
| CG43689 | 2 | 1.36e5 | 2.88e5 | 5.75e5 | 6.30e5 | inactive |
| CG43689 | 3 | 5.71e5 | 6.18e5 | 1.42e6 | 1.54e6 | inactive |
| CG43689 | 4 | 1.05e6 | 7.96e5 | 7.74e5 | 6.72e5 | inactive |
| CG43689 | 5 | 4.00e5 | 3.15e5 | 6.08e5 | 6.76e5 | inactive |
| Ir51a | 1 | 64430 | 59331 | 1.27e6 | 1.27e6 | inactive |
| Arts + Apl | 1 | 2.79e5 | 2.07e5 | 3.01e6 | 2.67e6 | inactive |
| CG18549 | 1 | 46708 | 49952 | 6.48e5 | 5.97e5 | inactive |
| CG18549 | 2 | 4.42e5 | 4.46e5 | 1.20e6 | 1.28e6 | inactive |
| CG33255 (retired record) + hpRNA:CR32205 + CR42838 | 1 | 1.45e5 | 1.28e5 | 4.34e5 | 4.58e5 | inactive |
| Usp32 | 1 | 1.77e5 | 1.58e5 | 1.81e6 | 1.86e6 | inactive |
| CG43336 | 1 | 1.85e5 | 1.87e5 | 3.26e6 | 3.05e6 | inactive |
| Gr22e | 1 | 7.86e5 | 6.42e5 | 1.41e6 | 1.13e6 | inactive |
| Jhbp15 | 1 | 2.39e5 | 2.85e5 | 3.03e6 | 3.33e6 | inactive |
| beat-IIIc | 1 | 1.50e5 | 1.94e5 | 1.82e6 | 2.18e6 | inactive |
| beat-IIIc | 2 | 1.55e5 | 1.75e5 | 1.92e6 | 2.19e6 | inactive |
| CG15753 (retired record) | 1 | 7.22e5 | 6.55e5 | 2.06e6 | 1.85e6 | inactive |
| CG15753 (retired record) | 2 | 1.11e5 | 85910 | 5.72e5 | 6.72e5 | inactive |
| CG15753 (retired record) | 3 | 3.62e5 | 3.11e5 | 2.71e6 | 2.36e6 | inactive |
| CG15753 (retired record) | 4 | 3.20e5 | 3.51e5 | 1.68e6 | 2.09e6 | inactive |
| CG15753 (retired record) | 5 | 7.31e5 | 1.12e6 | 1.28e6 | 1.68e6 | inactive |
| CG13983 | 1 | 1.90e5 | 1.95e5 | 1.97e6 | 1.34e6 | inactive |
| CG13983 | 2 | 3.27e5 | 2.96e5 | 1.08e6 | 1.53e6 | inactive |
| qless | 1 | 2.14e5 | 2.43e5 | 2.13e6 | 3.07e6 | inactive |
| qless | 2 | 2.15e5 | 2.22e5 | 2.17e6 | 3.10e6 | inactive |
| AGBE | 1 | 1.20e6 | 1.24e6 | 1.40e6 | 1.53e6 | inactive |
| AGBE | 2 | 3.79e5 | 4.40e5 | 5.52e5 | 7.92e5 | inactive |
| tRNA:Leu-CAA-2-3 | 1 | 2.83e5 | 2.06e5 | 4.12e5 | 5.68e5 | inactive |
| CG1785 | 1 | 1.21e5 | 1.16e5 | 7.75e5 | 8.99e5 | inactive |
| CG1785 | 2 | 5.78e5 | 3.64e5 | 9.67e5 | 1.06e6 | inactive |
